Results taken from paper PMC12554075.
These are yes or no findings as the source states them, for the method shown. Binding seen in cells or lysates may run through a third protein. Some binding calls cover weakened binding; strength is not graded here.

Biological target: angiotensin II type 1 receptor, C-terminally Rluc-fused (AT1R-Rluc) (UniProt P30556)
Assay: FRET or BRET; real-time BRET kinetics in live HEK293 cells co-expressing AT1R-Rluc (donor) with Venus-Gαq or yPET-β-arrestin 2 (acceptor); 37°C, PBS, Coelenterazine-H 5 µM; cells stimulated with AngII (10 nM), LVV-H7 (10 μM) or their combination, up to 30 min

binding: binds
Substance: yPET-tagged β-arrestin 2 (from UniProt P32121 1-409)
